Results taken from PubChem BioAssay AID540276 (National Center for Advancing Translational Sciences (NCATS), 2011).
Where “and” joins values, the source holds several entries; their conditions need not be identical. Equal entries are not always repeated. In all, about 300,000 compounds went through this assay and about 5,400 (1.8%) were called active. This list was built around the results that the source calls inconclusive (neither active nor inactive); the mix of calls is not that of the screen. The call rests on the fitted dose curve; tested in HEK293 cells. Potencies beside an inconclusive call are fits to weak or partial responses and may not hold up.

test: qHTS for inhibitors of binding or entry into cells for Marburg Virus; conditions: Marburg virus pseudotyped entry inhibition, cell reporter; series mostly up to 37.8 µM
Potency means the concentration at half of the fitted maximal effect.

Compound | Potency
Cc1sc2nc(C(C)C)nc(SCC(=O)N3c4ccccc4CC3C)c2c1C (configuration not stated) | inconclusive: 22.4 µM [inhibitor, single point]
COc1cc(NC(=S)NCCC(c2ccccc2)c2ccccc2)c(OC)cc1Cl | inconclusive: 11.2 µM [inhibitor, partial curve]
COc1ccc(Cl)cc1NC(=O)CN(C)C(=O)Cn1cnnn1 | inconclusive: 35.5 µM [activator, single point]
Cc1ccccc1C(=O)NNC(=O)c1ccc(F)cc1 | inactive
O=C(O)c1ccc(/C=C/c2nc3ccccc3c(=O)n2-c2ccc(Br)cc2)cc1 | inconclusive: 11.2 µM [inhibitor, partial curve, poor fit]
Cc1cc(C(=O)OCC(=O)Nc2ccccc2[N+](=O)[O-])c2ccccc2n1 | inconclusive: 2.82 µM [activator, full curve, poor fit]
NC(=O)c1ccc(OCc2ccccc2)nc1 | inconclusive: 1.26 µM [inhibitor, partial curve, poor fit]
Oc1ccc(N=Nc2n[nH]c(-c3ccc(Cl)cc3)n2)cc1 | inactive
Cc1ccc(S(=O)(=O)NCCC(=O)NNC(=O)c2ccccc2Cl)cc1C | inconclusive: 2.82 µM [inhibitor, partial curve, poor fit]
Cc1nn(Cc2ccccc2)c2c1C(c1ccncc1)C(C#N)=C(N)O2 (configuration not stated) | inconclusive: 2.51 µM [activator, full curve, poor fit]
Cc1ccc(-c2[nH]nc3c2C(c2ccsc2)C(C#N)=C(N)O3)cc1 (configuration not stated) | inconclusive: 20.6 µM [inhibitor, partial curve, poor fit]
COc1cc(/C=C(/C#N)c2nc(-c3cc4ccccc4oc3=O)cs2)ccc1O | inactive
O=C(c1ccc(CS(=O)Cc2ccc(Cl)cc2)o1)N1CCN(c2ccccn2)CC1 (configuration not stated) | inconclusive: 17.8 µM [inhibitor, partial curve, poor fit]
COc1ccccc1NC(=O)c1cc(Cl)nc2ccccc12 | inconclusive: 5.01 µM [inhibitor, single point]
CCOc1ccc(NC(=S)N(CCCN2CCOCC2)Cc2cn(C)c3ccccc23)cc1 | inconclusive: 14.1 µM [inhibitor, partial curve, poor fit]
Cc1ccccc1COc1ccc(/C(O)=C2\C(=O)C(=O)N(CCCn3ccnc3)[C@H]2c2ccco2)cc1 | inactive
Cc1ccccc1COC[C@H](CC(C)C)N1CCN(C(=O)c2cccc(C(F)(F)F)c2)CCC1=O | inconclusive: 32.6 µM [inhibitor, partial curve, poor fit]
CC(C(=O)Nc1ccc(O)cc1)c1cccc(C(=O)c2ccccc2)c1 (configuration not stated) | inconclusive: 7.08 µM [inhibitor, full curve, poor fit]
Cc1ccccc1COC(=O)c1nn(-c2ccccc2)nc1N | inconclusive: 11.2 µM [activator, partial curve, poor fit] and inconclusive: 1.26 µM [activator, partial curve, poor fit]
CCCCCCC#C[C@@H]1C=C[C@H](OC(C)=O)[C@@H](COC(C)=O)O1 | inconclusive: 5.31 µM [inhibitor, single point]
CCn1cc(C(=O)Nc2cccc(Cl)c2)c2cc(OC)c(OC)cc2c1=O | inactive

Entries above that contain a Cl atom, in the order listed:
Compound | Potency
COc1cc(NC(=S)NCCC(c2ccccc2)c2ccccc2)c(OC)cc1Cl | inconclusive: 11.2 µM [inhibitor, partial curve]
COc1ccc(Cl)cc1NC(=O)CN(C)C(=O)Cn1cnnn1 | inconclusive: 35.5 µM [activator, single point]
Oc1ccc(N=Nc2n[nH]c(-c3ccc(Cl)cc3)n2)cc1 | inactive
Cc1ccc(S(=O)(=O)NCCC(=O)NNC(=O)c2ccccc2Cl)cc1C | inconclusive: 2.82 µM [inhibitor, partial curve, poor fit]
O=C(c1ccc(CS(=O)Cc2ccc(Cl)cc2)o1)N1CCN(c2ccccn2)CC1 (configuration not stated) | inconclusive: 17.8 µM [inhibitor, partial curve, poor fit]
COc1ccccc1NC(=O)c1cc(Cl)nc2ccccc12 | inconclusive: 5.01 µM [inhibitor, single point]
CCn1cc(C(=O)Nc2cccc(Cl)c2)c2cc(OC)c(OC)cc2c1=O | inactive

Additional compounds.

Compound | Potency
CCCCOC(=O)Cn1c(=O)n(CC(=O)OCCCC)c2ccccc21 | inactive
COc1ccc(C2CC(=O)Nc3c2c(=O)[nH]c2nc4ccccc4n32)cc1 (configuration not stated) | inactive
CC12CC(c3ccccc3O1)N(C(=O)c1ccco1)C(=O)N2c1ccccc1 (configuration not stated) | inactive
Nc1c(-c2cccc(Cl)c2)cnc2c(-c3ccccc3)cnn12 | inconclusive: 1.58 µM [activator, full curve, poor fit]
S=C(NCc1ccco1)N/N=C/c1ccccc1Cl | inconclusive: 0.501 µM [inhibitor, full curve, poor fit]
C=C(c1ccc2nc(NC(=O)OC)[nH]c2c1)c1cccs1 | inconclusive: 10 µM [inhibitor, partial curve]
CCN(C(=O)c1ccc(Cl)cc1[N+](=O)[O-])c1ccccc1C | inconclusive: 2 µM [inhibitor, full curve]
O=C(COC(=O)/C=C/c1ccc2c(c1)OCO2)Nc1ccccc1 | inactive
CC1(C)C2CCC1(CS(=O)(=O)N1CCC(C(N)=O)CC1)C(=O)C2 (configuration not stated) | inconclusive: 5.62 µM [inhibitor, single point]
Cn1nc(-c2ccc(C(=O)Nc3cccc(Cl)c3)cc2)c2ccccc2c1=O | inactive
CSCCC(NC(=O)c1ccccc1)C(=O)N(C)CC(=O)Nc1ccc(N2CCOCC2)cc1 (configuration not stated) | inactive
COc1cccc(CC2(CO)CCCN(Cc3cn[nH]c3-c3ccc(F)cc3)C2)c1 (configuration not stated) | inconclusive: 10 µM [inhibitor, partial curve, poor fit]
O=S1(=O)CCSCCN1Cc1ccc(Br)cc1 | inconclusive: 0.0177 µM [activator, full curve, poor fit]
COc1ccc(CCC(C)Nc2cccc(C)c2)cc1 (configuration not stated) | inconclusive: 18.3 µM [inhibitor, partial curve, poor fit]
COc1ccc(NC(=O)c2cc(C)n(Cc3cccs3)c2C)cc1 | inconclusive: 2.82 µM [inhibitor, partial curve, poor fit]
Cc1cc([N+](=O)[O-])c(NC2CCCCC2)c([N+](=O)[O-])c1 | inconclusive: 32.6 µM [inhibitor, single point]
O=C(CSc1cccc[n+]1[O-])NC1CCCCCCC1 | inconclusive: 5.62 µM [inhibitor, single point]
COc1cc(/C=N/NC(=O)c2cccc(C(=O)N/N=C/c3ccc(O)c(OC)c3)n2)ccc1O | inactive
CC(=O)Nc1ccc(/C=C(\C#N)C(=O)NC2CCCCC2C)cc1 (configuration not stated) | inactive
COC(=O)N1CCCc2cc(S(=O)(=O)NCc3ccccc3)ccc21 | inactive
CN(C(=O)COC(=O)c1cc([N+](=O)[O-])ccc1N1CCCC1)C1CCS(=O)(=O)C1 (configuration not stated) | inconclusive: 35.5 µM [activator, single point]
